This note sets out measurements from PMC12514153.

By UniProt entry, the sequences of proteins in these tests, tags left out.
UniProt P05787: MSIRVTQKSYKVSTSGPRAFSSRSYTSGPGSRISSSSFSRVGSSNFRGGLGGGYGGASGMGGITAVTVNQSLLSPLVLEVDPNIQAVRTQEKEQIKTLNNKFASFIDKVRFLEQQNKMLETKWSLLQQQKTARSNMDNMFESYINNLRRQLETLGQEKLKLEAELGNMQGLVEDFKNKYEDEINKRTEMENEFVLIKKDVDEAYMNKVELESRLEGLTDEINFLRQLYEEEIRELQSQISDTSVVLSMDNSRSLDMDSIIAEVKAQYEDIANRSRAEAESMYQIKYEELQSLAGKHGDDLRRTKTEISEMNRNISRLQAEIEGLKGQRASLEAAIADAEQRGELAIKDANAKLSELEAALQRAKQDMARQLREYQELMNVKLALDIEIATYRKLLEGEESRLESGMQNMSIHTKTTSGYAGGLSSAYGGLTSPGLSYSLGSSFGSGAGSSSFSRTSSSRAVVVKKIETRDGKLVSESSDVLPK
UniProt P08727: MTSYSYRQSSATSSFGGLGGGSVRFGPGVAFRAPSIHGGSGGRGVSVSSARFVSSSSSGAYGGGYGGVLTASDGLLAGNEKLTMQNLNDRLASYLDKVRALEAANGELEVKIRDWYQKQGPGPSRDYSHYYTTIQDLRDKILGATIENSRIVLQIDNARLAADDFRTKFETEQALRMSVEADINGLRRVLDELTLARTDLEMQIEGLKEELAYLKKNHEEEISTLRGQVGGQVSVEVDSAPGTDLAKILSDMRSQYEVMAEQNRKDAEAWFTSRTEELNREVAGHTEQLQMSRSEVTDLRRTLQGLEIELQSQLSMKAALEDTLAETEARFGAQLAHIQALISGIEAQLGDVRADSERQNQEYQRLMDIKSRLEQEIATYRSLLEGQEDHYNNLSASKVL
UniProt P15924: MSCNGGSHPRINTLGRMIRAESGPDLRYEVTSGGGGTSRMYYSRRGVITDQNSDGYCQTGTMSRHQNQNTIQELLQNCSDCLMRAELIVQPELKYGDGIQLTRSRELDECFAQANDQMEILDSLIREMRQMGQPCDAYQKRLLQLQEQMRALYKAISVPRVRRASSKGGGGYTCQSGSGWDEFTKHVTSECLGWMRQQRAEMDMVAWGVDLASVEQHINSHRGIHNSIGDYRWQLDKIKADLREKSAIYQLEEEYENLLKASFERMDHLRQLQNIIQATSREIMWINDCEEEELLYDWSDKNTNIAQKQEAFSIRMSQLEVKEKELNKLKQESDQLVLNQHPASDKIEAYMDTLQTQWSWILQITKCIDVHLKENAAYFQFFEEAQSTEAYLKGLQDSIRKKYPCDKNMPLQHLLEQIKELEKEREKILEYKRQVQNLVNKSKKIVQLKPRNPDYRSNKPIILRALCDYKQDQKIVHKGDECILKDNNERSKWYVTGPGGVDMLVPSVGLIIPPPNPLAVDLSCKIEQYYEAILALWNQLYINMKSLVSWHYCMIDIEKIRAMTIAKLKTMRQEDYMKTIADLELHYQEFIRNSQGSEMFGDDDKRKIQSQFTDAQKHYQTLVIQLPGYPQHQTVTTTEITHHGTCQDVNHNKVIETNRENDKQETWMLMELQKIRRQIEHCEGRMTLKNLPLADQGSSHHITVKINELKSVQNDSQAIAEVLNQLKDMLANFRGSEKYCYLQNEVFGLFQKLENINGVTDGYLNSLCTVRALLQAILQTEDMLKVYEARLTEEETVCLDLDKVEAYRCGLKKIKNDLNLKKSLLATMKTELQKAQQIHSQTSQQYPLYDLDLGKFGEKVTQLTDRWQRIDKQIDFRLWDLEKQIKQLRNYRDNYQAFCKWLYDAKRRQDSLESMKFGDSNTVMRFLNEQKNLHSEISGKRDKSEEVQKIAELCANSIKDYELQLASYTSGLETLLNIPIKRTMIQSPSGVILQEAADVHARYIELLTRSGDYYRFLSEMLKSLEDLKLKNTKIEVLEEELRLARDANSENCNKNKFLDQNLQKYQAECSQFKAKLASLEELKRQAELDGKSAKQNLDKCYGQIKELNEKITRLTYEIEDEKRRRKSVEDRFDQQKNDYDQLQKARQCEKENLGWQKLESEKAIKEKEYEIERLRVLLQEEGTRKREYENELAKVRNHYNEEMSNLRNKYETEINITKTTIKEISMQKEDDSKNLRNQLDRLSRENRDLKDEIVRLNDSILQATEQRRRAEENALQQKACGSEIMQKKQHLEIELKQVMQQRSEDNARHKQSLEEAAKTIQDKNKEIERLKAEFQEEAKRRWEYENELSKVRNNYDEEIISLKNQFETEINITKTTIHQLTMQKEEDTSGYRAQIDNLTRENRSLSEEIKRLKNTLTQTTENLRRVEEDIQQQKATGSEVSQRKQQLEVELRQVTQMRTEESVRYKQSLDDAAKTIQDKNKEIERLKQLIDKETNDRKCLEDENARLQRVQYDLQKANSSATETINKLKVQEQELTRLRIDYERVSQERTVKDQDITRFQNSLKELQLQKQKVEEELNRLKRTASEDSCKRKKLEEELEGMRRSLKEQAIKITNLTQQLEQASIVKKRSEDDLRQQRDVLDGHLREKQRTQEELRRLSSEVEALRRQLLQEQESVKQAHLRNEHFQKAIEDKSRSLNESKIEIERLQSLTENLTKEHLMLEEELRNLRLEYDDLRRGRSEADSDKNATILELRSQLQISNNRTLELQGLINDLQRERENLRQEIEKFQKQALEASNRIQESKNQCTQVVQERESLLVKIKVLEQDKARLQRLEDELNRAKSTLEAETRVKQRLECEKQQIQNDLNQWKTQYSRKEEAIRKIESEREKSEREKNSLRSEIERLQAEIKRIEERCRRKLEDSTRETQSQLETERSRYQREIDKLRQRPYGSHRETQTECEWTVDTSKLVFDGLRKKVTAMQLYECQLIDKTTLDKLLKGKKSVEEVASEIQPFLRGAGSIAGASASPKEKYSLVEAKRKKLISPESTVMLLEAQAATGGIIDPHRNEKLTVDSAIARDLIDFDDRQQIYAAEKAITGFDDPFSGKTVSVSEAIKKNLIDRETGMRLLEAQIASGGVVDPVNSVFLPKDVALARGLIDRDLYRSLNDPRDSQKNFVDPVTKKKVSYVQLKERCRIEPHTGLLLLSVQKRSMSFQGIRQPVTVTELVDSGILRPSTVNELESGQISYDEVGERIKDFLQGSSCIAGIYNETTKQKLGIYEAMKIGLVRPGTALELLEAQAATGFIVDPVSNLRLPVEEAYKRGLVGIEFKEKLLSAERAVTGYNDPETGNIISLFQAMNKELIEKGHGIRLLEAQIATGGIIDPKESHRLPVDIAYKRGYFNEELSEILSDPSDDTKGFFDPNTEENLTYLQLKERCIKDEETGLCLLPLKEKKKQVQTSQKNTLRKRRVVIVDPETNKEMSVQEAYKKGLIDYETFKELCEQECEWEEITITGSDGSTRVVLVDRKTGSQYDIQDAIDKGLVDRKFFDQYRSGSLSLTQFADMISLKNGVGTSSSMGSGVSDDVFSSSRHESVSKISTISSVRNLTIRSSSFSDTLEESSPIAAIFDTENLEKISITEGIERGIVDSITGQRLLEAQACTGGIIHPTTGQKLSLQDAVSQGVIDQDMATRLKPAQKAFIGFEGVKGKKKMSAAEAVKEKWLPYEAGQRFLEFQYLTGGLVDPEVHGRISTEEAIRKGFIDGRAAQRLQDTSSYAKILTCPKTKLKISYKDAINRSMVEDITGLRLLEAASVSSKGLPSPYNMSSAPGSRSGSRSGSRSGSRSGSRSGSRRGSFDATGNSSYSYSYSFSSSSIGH

Results are given in words; binding and its absence hold for the method and conditions named. In cells and extracts the contact can be indirect. Some entries that bind do so weakly or less than the wild type.

Assay [1] deals with Keratin-8 (human (endogenous in MCF7)) (UniProt P05787). Description: co-IP; MCF7 WT and K19-KO cell lysates in 1% Triton X-100 lysis buffer, anti-K8 or anti-K18 antibody or IgG control for 2 h at 4 °C, Protein G Plus-Agarose beads, washed 4X with lysis buffer supplemented with 300 mM NaCl; immunoblot.
The target in assay [2] is T1, Keratin-18 (human (endogenous in MCF7)) (UniProt P05783).
T1 sequence: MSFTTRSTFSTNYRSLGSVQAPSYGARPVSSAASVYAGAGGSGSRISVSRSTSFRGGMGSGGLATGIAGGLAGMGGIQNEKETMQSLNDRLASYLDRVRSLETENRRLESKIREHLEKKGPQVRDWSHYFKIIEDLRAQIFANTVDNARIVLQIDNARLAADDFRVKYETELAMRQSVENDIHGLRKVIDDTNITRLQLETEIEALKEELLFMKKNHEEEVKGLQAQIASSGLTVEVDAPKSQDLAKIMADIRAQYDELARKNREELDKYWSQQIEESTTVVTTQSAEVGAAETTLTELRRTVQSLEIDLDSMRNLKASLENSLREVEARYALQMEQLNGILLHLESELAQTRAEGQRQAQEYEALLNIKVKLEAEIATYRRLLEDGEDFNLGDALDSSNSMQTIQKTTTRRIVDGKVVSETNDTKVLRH
The assay is described as above.

Assay [3] concerns the target keratin 19 (human (endogenous in MCF7)) (UniProt P08727). Description: co-IP; MCF7 WT cell lysate in 1% Triton X-100 lysis buffer (40 mM HEPES pH 7.5, 120 mM NaCl, 1 mM EDTA), anti-K19 antibody or IgG control for 2 h at 4 °C, Protein G Plus-Agarose beads, washed 4X with lysis buffer supplemented with 300 mM NaCl; immunoblot; K19-KO cells as control. (In western blotting, separated proteins are transferred to a membrane and probed.)

With “desmoplakin (from UniProt P15924 1-2871)”, the binding result in assay [1], in assay [2] and in assay [3] was “binds” throughout.

B1: plakophilin-3 (protein, UniProt Q9Y446 1-797)
chain: MQDGNFLLSALQPEAGVCSLALPSDLQLDRRGAEGPEAERLRAARVQEQVRARLLQLGQQPRHNGAAEPEPEAETARGTSRGQYHTLQAGFSSRSQGLSGDKTSGFRPIAKPAYSPASWSSRSAVDLSCSRRLSSAHNGGSAFGAAGYGGAQPTPPMPTRPVSFHERGGVGSRADYDTLSLRSLRLGPGGLDDRYSLVSEQLEPAATSTYRAFAYERQASSSSSRAGGLDWPEATEVSPSRTIRAPAVRTLQRFQSSHRSRGVGGAVPGAVLEPVARAPSVRSLSLSLADSGHLPDVHGFNSYGSHRTLQRLSSGFDDIDLPSAVKYLMASDPNLQVLGAAYIQHKCYSDAAAKKQARSLQAVPRLVKLFNHANQEVQRHATGAMRNLIYDNADNKLALVEENGIFELLRTLREQDDELRKNVTGILWNLSSSDHLKDRLARDTLEQLTDLVLSPLSGAGGPPLIQQNASEAEIFYNATGFLRNLSSASQATRQKMRECHGLVDALVTSINHALDAGKCEDKSVENAVCVLRNLSYRLYDEMPPSALQRLEGRGRRDLAGAPPGEVVGCFTPQSRRLRELPLAADALTFAEVSKDPKGLEWLWSPQIVGLYNRLLQRCELNRHTTEAAAGALQNITAGDRRWAGVLSRLALEQERILNPLLDRVRTADHHQLRSLTGLIRNLSRNARNKDEMSTKVVSHLIEKLPGSVGEKSPPAEVLVNIIAVLNNLVVASPIAARDLLYFDGLRKLIFIKKKRDSPDSEKSSRAASSLLANLWQYNKLHRDFRAKGYRKEDFLGP
With B1, the binding entry in assay [3] is reported as “binds”.
